Experimental data from doi:10.1101/606285.
No constants are given. Whether binding was seen depends on the method and setting. For some of these results: Binding seen in cells or lysates may run through a third protein. Some entries that bind do so weakly or less than the wild type. Where a sequence is shown, tags or fusion partners need not be part of it.

Amino acid sequences for entries named in this document (tags omitted).
UniProt Q5IBC5: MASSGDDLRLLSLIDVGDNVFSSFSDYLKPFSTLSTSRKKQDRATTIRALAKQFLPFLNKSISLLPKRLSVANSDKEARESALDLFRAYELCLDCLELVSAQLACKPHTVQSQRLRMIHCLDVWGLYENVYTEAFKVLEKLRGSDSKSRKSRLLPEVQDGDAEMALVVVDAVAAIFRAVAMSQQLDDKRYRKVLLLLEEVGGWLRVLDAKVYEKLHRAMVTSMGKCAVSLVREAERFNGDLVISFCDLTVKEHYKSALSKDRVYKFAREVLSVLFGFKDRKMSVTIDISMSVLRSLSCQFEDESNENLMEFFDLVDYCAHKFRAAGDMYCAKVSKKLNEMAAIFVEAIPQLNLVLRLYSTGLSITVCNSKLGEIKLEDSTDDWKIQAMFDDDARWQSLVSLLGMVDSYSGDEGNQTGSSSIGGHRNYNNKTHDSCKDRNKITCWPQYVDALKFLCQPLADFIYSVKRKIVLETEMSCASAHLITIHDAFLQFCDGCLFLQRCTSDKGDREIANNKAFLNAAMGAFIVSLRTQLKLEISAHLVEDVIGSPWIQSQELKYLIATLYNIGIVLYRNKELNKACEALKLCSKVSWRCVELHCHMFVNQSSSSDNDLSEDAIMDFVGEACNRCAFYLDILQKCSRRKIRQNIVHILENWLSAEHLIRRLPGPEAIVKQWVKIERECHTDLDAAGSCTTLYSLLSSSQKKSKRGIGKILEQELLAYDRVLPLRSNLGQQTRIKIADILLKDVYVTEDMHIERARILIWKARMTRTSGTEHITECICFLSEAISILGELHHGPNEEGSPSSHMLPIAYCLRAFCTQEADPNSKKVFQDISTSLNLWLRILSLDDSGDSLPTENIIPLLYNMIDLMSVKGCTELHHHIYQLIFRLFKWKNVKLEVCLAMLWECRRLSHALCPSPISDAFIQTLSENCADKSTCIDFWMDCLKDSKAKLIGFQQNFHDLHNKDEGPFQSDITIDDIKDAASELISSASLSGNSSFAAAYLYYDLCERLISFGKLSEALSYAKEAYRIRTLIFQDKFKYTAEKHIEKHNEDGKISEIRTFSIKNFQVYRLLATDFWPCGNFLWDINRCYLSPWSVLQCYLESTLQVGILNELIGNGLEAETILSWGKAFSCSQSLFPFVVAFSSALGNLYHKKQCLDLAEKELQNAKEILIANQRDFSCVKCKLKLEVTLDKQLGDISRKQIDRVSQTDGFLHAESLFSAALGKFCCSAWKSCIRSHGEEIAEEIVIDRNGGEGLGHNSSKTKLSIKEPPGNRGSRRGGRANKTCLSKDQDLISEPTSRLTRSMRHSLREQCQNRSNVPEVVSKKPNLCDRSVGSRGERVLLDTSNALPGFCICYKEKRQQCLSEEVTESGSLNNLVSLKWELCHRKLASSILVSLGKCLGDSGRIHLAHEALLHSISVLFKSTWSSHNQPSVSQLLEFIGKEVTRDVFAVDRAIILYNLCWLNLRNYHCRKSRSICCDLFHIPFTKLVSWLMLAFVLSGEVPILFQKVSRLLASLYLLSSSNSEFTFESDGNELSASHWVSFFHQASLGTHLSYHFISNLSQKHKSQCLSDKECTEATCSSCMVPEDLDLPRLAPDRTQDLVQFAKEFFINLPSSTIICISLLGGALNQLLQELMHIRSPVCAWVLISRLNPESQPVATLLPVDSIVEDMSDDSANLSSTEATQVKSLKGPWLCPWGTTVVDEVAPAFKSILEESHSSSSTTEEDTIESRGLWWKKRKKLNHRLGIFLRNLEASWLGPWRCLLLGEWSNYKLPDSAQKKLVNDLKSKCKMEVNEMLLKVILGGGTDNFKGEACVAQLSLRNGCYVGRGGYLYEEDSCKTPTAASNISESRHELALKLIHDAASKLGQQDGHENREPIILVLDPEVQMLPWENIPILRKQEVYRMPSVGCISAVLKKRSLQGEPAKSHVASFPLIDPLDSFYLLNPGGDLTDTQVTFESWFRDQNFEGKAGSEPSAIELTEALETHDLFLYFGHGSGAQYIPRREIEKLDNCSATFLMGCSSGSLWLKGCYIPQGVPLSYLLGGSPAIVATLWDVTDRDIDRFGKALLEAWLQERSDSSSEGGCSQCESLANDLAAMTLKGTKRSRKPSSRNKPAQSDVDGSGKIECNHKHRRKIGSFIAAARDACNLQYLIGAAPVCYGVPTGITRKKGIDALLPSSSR

Key:
[1] = biological target: SEPARASE (ESP), fused with the binding domain (BD) (Arabidopsis thaliana) (UniProt Q5IBC5); assay: two-hybrid
[2] = biological target: SEPARASE (ESP), split-YFP fusion for BiFC (Arabidopsis thaliana) (UniProt Q5IBC5); assay: split reporter

Binder | binding [1] | binding [2]
PATRONUS1 (PANS1), fused with the activating domain (AD) (protein, UniProt Q9LJG6 1-193) MANMNALQQMIFPDENAPIHRKKSVTAASVKSKGTVLGQKKPGGARKALNDITNKSGIHAKAAASSKNKQIASAAVKEIDIAGERFLHDHSKCIKEQQNLWDDHYSADLMLLHHGSSIKEKHLNWDIEKMDAKDDLTYEEPEEMASPKFSDWLKNSTPWRSPIRHGSMMPSTPLAWRFDSCEFTLKEDSDDLF | binds | –
PATRONUS2 (PANS2), split-YFP fusion for BiFC (protein, UniProt Q94CK6 1-194) MANTILRGQMIFQDENALAALGKKAVAAGKGKSSLAAPKKNGAGFGSRKALHDITNKSKLQPQASSTTRKDVEGVDFDIAKEGFLHDHSKCIEEQQQDQWDSYFSEHIILHGHETNIKEGVPQYNNIQEIDAENSWDELKEIPMEEFSDLLECSTQWRSPPDSLSHHHSSLPSSPLPWHFETVEFKLKEDEDTT | – | binds

More lines, now with the values ahead:

binding [1] | binding [2] | Binder
– | binds | PATRONUS1 (PANS1), split-YFP fusion for BiFC (protein, UniProt Q9LJG6 1-193) MANMNALQQMIFPDENAPIHRKKSVTAASVKSKGTVLGQKKPGGARKALNDITNKSGIHAKAAASSKNKQIASAAVKEIDIAGERFLHDHSKCIKEQQNLWDDHYSADLMLLHHGSSIKEKHLNWDIEKMDAKDDLTYEEPEEMASPKFSDWLKNSTPWRSPIRHGSMMPSTPLAWRFDSCEFTLKEDSDDLF
binds | – | PATRONUS2 (PANS2), fused with the activating domain (AD) (protein, UniProt Q94CK6 1-194) MANTILRGQMIFQDENALAALGKKAVAAGKGKSSLAAPKKNGAGFGSRKALHDITNKSKLQPQASSTTRKDVEGVDFDIAKEGFLHDHSKCIEEQQQDQWDSYFSEHIILHGHETNIKEGVPQYNNIQEIDAENSWDELKEIPMEEFSDLLECSTQWRSPPDSLSHHHSSLPSSPLPWHFETVEFKLKEDEDTT
